Reference: US7851436
These are yes or no findings as the source states them, for the method shown. In cells and extracts the contact can be indirect. Binding can be weak; no strength is given.

Chains of the proteins cited; added tags and fusions are not shown. Lines headed by an entry give the natural chain unless they say otherwise; changes in a name come on top.
UniProt P06756: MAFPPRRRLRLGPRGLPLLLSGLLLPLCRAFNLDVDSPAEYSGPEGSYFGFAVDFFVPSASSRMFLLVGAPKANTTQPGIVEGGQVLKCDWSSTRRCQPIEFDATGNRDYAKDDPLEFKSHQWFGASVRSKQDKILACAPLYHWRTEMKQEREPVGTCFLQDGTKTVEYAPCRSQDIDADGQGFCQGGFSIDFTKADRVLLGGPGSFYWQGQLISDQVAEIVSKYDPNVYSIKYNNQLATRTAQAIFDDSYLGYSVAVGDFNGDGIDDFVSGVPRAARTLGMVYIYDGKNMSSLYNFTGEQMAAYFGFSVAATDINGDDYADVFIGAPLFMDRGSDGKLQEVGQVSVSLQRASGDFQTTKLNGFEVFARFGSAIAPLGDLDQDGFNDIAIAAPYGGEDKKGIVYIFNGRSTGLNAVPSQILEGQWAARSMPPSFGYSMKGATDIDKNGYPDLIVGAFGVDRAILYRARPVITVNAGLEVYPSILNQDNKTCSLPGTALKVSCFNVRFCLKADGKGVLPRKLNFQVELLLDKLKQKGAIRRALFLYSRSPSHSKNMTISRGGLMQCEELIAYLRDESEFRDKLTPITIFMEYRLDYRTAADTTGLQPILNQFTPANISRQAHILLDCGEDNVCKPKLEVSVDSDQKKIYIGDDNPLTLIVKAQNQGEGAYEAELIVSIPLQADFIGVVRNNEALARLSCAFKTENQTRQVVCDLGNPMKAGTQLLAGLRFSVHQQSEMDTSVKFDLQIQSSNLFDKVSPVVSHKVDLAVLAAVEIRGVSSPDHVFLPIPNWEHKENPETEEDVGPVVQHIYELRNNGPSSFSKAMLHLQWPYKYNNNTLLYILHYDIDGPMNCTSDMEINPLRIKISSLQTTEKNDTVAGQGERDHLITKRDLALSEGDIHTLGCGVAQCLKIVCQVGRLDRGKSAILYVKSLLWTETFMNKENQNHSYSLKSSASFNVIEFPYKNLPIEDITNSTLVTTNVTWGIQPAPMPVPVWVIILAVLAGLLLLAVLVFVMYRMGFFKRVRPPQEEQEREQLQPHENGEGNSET

Assays:
integrin αV (human) [1] = target: integrin αV (human) (UniProt P06756); assay: GST pull-down and Western blot; co-immunoprecipitation with αV antibody
integrin αV (human) [2] = target: integrin αV (human) (UniProt P06756); assay: co-immunoprecipitation with αV antibody on protein A agarose, blot with chicken anti PIIBNP (FIGS. 3L and M)

binding (integrin αV (human) [1]): binds
binding (integrin αV (human) [2]): binds
Substance: GST-PIIBNP (GST fusion of human Type IIB collagen amino propeptide, exons 3-8) (from UniProt P02458 30-134) (ligand)
